Laboratory results reported in publication PMC7232412.
These are yes or no findings as the source states them, for the method shown. Some binding calls cover weakened binding; strength is not graded here.

Protein sequences, listed by entry. Tags and fused reporters are not part of them. Lines headed by an entry give the natural chain unless they say otherwise; changes in a name come on top. Chains listed by the source or under a name are the forms on record and can include a tag or linker.
UniProt Q99816: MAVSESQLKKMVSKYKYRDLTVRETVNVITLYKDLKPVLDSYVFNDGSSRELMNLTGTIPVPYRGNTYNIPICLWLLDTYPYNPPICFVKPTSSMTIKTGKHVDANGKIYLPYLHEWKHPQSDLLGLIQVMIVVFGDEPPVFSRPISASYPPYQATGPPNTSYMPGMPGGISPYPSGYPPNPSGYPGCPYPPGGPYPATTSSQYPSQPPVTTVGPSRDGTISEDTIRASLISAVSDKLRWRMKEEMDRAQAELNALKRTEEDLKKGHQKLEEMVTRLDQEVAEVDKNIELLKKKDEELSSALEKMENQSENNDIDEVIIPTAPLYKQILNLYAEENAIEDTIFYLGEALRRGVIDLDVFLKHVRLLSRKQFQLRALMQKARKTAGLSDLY
human Tsg101 KK9,10AA (Q99816, form named): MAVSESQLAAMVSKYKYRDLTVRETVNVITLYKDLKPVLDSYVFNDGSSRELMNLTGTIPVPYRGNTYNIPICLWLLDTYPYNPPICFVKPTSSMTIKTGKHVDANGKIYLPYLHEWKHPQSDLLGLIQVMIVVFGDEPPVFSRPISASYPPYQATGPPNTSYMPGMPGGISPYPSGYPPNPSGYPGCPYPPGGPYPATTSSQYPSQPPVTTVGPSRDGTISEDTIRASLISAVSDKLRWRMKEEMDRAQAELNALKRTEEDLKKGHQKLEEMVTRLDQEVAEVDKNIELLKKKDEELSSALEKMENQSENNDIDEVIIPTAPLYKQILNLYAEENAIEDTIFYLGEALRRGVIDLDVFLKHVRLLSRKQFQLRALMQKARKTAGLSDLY

Molecular target: HIV-1 Gag p6 (pGBT p6) (HIV-1) (UniProt P04591)
Experiment: two-hybrid

human Tsg101 KK9,10AA (from UniProt Q99816 1-390)
binding: binds

human Tsg101 wild-type (pGAD-hTsg101) (from UniProt Q99816 1-390)
binding: binds
